Results: PubChem BioAssay AID504444 (National Center for Advancing Translational Sciences (NCATS), 2011)
In all, about 360,000 compounds went through this assay and about 7,500 (2.1%) were called active. Inconclusive results, whose numbers are uncertain, are shown with a selection of clear calls. The call rests on the fitted dose curve; in most records, active means well fitted inhibition curve with a large enough effect; inconclusive means small, poorly fitted or top-dose-only effect, or effect the other way; inactive means flat fitted curve, though single readings scatter. Potencies beside an inconclusive call are fits to weak or partial responses and may not hold up.
On the % scale 0 is the no-effect control and ±100 the full control effect; potency means the concentration at half of the fitted maximal effect.

Experiment: Nrf2 qHTS screen for inhibitors; further: nearly all actives have a fitted effect of over 60% in size
Conditions: A549 ARE-Fluc reporter, luciferase luminescence, 18-24 h; activity change, negative = inhibition: at 46 µM (top of the series)
Method in brief: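 Concentration-response testing used A549 ARE_Fluc cells at 5000 cells/well. Following an 18-24 h compound incubation, viability was read by fluorescence (Ex 405/Em 525) and luciferase output by luminescence.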
With `COc1ccc(-n2c(SCC3CNC(=O)O3)nnc2-c2ccc(Cl)cc2)cc1` (configuration not stated) the Potency was inconclusive: 8.2 µM [falling, partial curve, poor fit].
In the case of `COc1cccc(NC(=O)C2CCN(S(=O)(=O)c3ccc4c(c3)NC(=O)C(C)S4)CC2)c1` (configuration not stated), the Potency is reported as inconclusive: 16.4 µM [falling, single point].
In the case of `COC(=O)c1ccc(OCC(=O)c2ccccc2OC)cc1`, the “activity change, negative = inhibition” value is reported as inactive: -18.9%.
In the case of `CCN(CC)S(=O)(=O)c1ccc(OC)c(NC(=O)C(C)Oc2ccc3c(C)cc(=O)oc3c2)c1` (configuration not stated), the Potency is reported as inconclusive: 18.4 µM [falling, partial curve, poor fit].
For `CCOc1ccc(C(=O)NCC(C)C)cc1`, the Potency was inconclusive: 5.8 µM [activator, single point].
With `CC(=O)c1ccc(NC(=O)C(C)Oc2ccc(N(C)S(=O)(=O)c3ccc(C)cc3)cc2)cc1` (configuration not stated) the Potency was inconclusive: 23.1 µM [falling, single point].
In the case of `COc1cccc(Nc2ccc([N+](=O)[O-])c3nonc23)c1`, the Potency is reported as inconclusive: 18.4 µM [falling, partial curve].
For `O=C(CC1Sc2ncnn2C1=O)Nc1ccc(Br)cc1` (configuration not stated), the “activity change, negative = inhibition” value was inactive: 13.7%.
In the case of `C[C@@H]1C[C@H]2[C@@H]3C[C@H](F)C4=CC(=O)C=C[C@]4(C)[C@@]3(F)[C@@H](O)C[C@]2(C)[C@@]1(O)C(=O)COC(=O)C(C)(C)C`, the Potency is reported as active: 0.0517 µM.
In the case of `Cc1cc(C)nc(N2CCCC(C(=O)NC3CCCC3)C2)n1` (configuration not stated), the “activity change, negative = inhibition” value is reported as inactive: 10.5%.
In the case of `Cc1ccc(OCC(=O)Nc2ccc(C)c(F)c2)c([N+](=O)[O-])n1`, the Potency is reported as inconclusive: 23.1 µM [activator, single point].
With `Cc1ccc(Nc2c([N+](=O)[O-])cc(C(=O)N3CC(=O)Nc4ccccc43)cc2[N+](=O)[O-])c(C)c1` the Potency was inconclusive: 20.6 µM [falling, partial curve].
In the case of `Cc1cc(NC(=O)COc2ccccc2)n(-c2ccccc2)n1`, the Potency is reported as inconclusive: 6.51 µM [falling, single point].
In the case of `COc1cc(CNc2ccc(N3CCN(C(C)=O)CC3)cc2)ccc1OCc1ccccc1`, the Potency is reported as inconclusive: 18.4 µM [falling, single point].
With `Cc1ccc(-n2nnnc2-c2cnoc2-c2cccc(F)c2)cc1` the Potency was inconclusive: 29.1 µM [activator, single point].
With `Cc1ccc(-c2nc3ccccn3c2Nc2ccccc2C)o1` the Potency was inconclusive: 23.1 µM [activator, single point].
For `O=C(CNS(=O)(=O)c1ccc(C(=O)N2CCCCC2)cc1)N1CCCCC1`, the Potency was inconclusive: 5.8 µM [falling, partial curve, poor fit].
